Source: patent US20160349221A1, “METHODS FOR MASS SPECTROMETRIC QUANTITATION OF ANALYTES EXTRACTED FROM A MICROSAMPLING DEVICE” (QUEST DIAGNOSTICS INVESTMENTS LLC, priority 2015, published 2016)

Key:
[1] = linear range, whole blood calibrators; for 10 uL Tip Range: 10 uL MITRA tip; for 15 uL Tip range: 15 uL MITRA tip
[2] = Anti-epileptic drugs LC-MS/MS from whole blood on 20 uL MITRA tips: within run precision
[3] = Mass spectrometric assay of steroids from 20 uL MITRA tips: analytical sensitivity (LOQ) and linear range; settings: for Linear Range: 20 uL MITRA tip, preliminary analytical measurable range; for LOQ: preliminary LOQ, lowest reproducible concentration with CV ≦20%
[4] = LC-MS/MS assay of benzodiazepines from whole blood calibrators on 10 uL and 20 uL MITRA tips: LOQ and linear range
[5] = 20 uL tips, whole blood calibrators
[6] = linear range, whole blood calibrators, 10 uL MITRA tip
[7] = linear range, whole blood calibrators, 20 uL MITRA tip

SMILES	Linear Range [3]	LOQ [3] [ng/dL]	LOQ on Mitra Tip [4, 5] [ng/mL]	10 uL Tip Range [4, 6]	20 uL Tip Range [4, 7]	further results
CC(=O)[C@]1(O)C=C[C@H]2[C@H]3Cc4ccc(O)c5c4[C@@]2(CCN3C)[C@H]1O5 [6MAM, 6-monoacetylmorphine]						10 uL Tip Range [1]: 10 to 1000 ng/mL; 15 uL Tip range [1]: 10 to 1000 ng/mL
NC(=O)N1c2ccccc2C2OC2c2ccccc21 (centres unmarked) [10,11 Carbamazepine Epoxide]						% Accuracy ([2]; High QC 15 ug/mL): 111.42%; MEAN of 10 runs ([2]; High QC 15 ug/mL): 16.71 µg/mL; % Accuracy ([2]; Low QC 3.75 ug/mL): 103.41%; MEAN of 10 runs ([2]; Low QC 3.75 ug/mL): 3.88 µg/mL; % Accuracy ([2]; Medium QC 7.5 ug/mL): 112.40%; MEAN of 10 runs ([2]; Medium QC 7.5 ug/mL): 8.43 µg/mL
C[C@]12CC[C@H]3[C@@H](CCC4=CC(=O)CC[C@@]43C)[C@@H]1CC[C@@H]2C(=O)CO [11-Deoxycorticosterone]	100-10,000 ng/dL	50				
C[C@]12CCC(=O)C=C1CC[C@@H]1[C@@H]2CC[C@@]2(C)[C@H]1CC[C@]2(O)C(=O)CO [11-Deoxycortisol]	100-10,000 ng/dL	50				
CC(=O)[C@@]1(O)CC[C@H]2[C@@H]3CCC4=CC(=O)CC[C@]4(C)[C@H]3CC[C@@]21C [17-Hydroxyprogesterone]	50-10,000 ng/dL	40				
CC(=O)[C@@]1(O)CC[C@H]2[C@@H]3CCC4=CC(=O)CC[C@]4(C)[C@H]3[C@@H](O)C[C@@]21C [21-Deoxycortisol]	100-10,000 ng/dL	75				
Cc1nnc2n1-c1ccc(Cl)cc1C(c1ccccc1)=NC2 [Alprazolam]			5	10 to 1000 ng/mL	5 to 1000 ng/mL	
C[C@]12CCC(=O)C=C1CC[C@@H]1[C@@H]2CC[C@]2(C)C(=O)CC[C@@H]12 [Androstenedione]	50-10,000 ng/dL	40				
O=C1CN=C(c2ccccn2)c2cc(Br)ccc2N1 [Bromazepam]			5	10 to 1000 ng/mL	5 to 1000 ng/mL	
NC(=O)N1c2ccccc2C=Cc2ccccc21 [Carbamazepine]						% Accuracy ([2]; High QC 12 ug/mL): 113.49%; MEAN of 10 runs ([2]; High QC 12 ug/mL): 13.62 µg/mL; % Accuracy ([2]; Low QC 3 ug/mL): 111.97%; MEAN of 10 runs ([2]; Low QC 3 ug/mL): 3.36 µg/mL; % Accuracy ([2]; Medium QC 6 ug/mL): 118.37%; MEAN of 10 runs ([2]; Medium QC 6 ug/mL): 7.10 µg/mL
CN1C(=O)CC(=O)N(c2ccccc2)c2cc(Cl)ccc21 [Clobazam]			1	2.5-1000^ ng/mL	1 to 1000 ng/mL	
O=C1CN=C(c2ccccc2Cl)c2cc([N+](=O)[O-])ccc2N1 [Clonazepam]			2.5	5 to 1000 ng/mL	2.5-1000^ ng/mL	
C[C@]12C[C@H](O)[C@H]3[C@@H](CCC4=CC(=O)CC[C@@]43C)[C@@H]1CC[C@@H]2C(=O)CO [Corticosterone]	200-10,000 ng/dL	100				
C[C@]12CCC(=O)C=C1CC[C@@H]1[C@@H]2[C@@H](O)C[C@@]2(C)[C@H]1CC[C@]2(O)C(=O)CO [Cortisol]	1-50^ ug/dL	250				
C[C@]12CCC(=O)C=C1CC[C@@H]1[C@@H]2C(=O)C[C@@]2(C)[C@H]1CC[C@]2(O)C(=O)CO [Cortisone]	0.5 to 10 µg/dL	200				
CN1C(=O)CN=C(c2ccccc2)c2cc(Cl)ccc21 [Diazepam]			1	2.5-1000^ ng/mL	1 to 1000 ng/mL	
CN1C(=O)CN=C(c2ccccc2F)c2cc([N+](=O)[O-])ccc21 [Flunitrazepam]						10 uL Tip Range [4]: 1 to 1000 ng/mL; 20 uL Tip Range [4]: 0.5-1000^ ng/mL; LOQ on Mitra Tip [4]: 0.5 ng/mL

SMILES	Linear Range [3]	LOQ [3] [ng/dL]	LOQ on Mitra Tip [4, 5] [ng/mL]	10 uL Tip Range [4, 6]	20 uL Tip Range [4, 7]	further results
CCN(CC)CCN1C(=O)CN=C(c2ccccc2F)c2cc(Cl)ccc21 [Flurazepam]			0.5	1 to 1000 ng/mL	0.5-1000^ ng/mL	
O=C1Nc2ccc(Cl)cc2C(c2ccccc2Cl)=NC1O (centres unmarked) [Lorazepam]			1	2.5-1000^ ng/mL	1 to 1000 ng/mL	
CN1CCN=C(c2ccccc2)c2cc(Cl)ccc21 [Medazepam]			1	2.5-1000^ ng/mL	1 to 1000 ng/mL	
Cc1ncc2n1-c1ccc(Cl)cc1C(c1ccccc1F)=NC2 [Midazolam]			10	25 to 1000 ng/mL	10 to 1000 ng/mL	
O=C1CN=C(c2ccccc2)c2cc([N+](=O)[O-])ccc2N1 [Nitrazepam]			1	2.5-1000^ ng/mL	1 to 1000 ng/mL	
O=C1CN=C(c2ccccc2)c2cc(Cl)ccc2N1 [Nordiazepam]			5	10 to 1000 ng/mL	5 to 1000 ng/mL	
COc1ccc2c3c1O[C@H]1C(=O)CC[C@@]4(O)[C@@H](C2)NCC[C@]314 [Noroxycodone]						10 uL Tip Range [1]: 10 to 1000 ng/mL; 15 uL Tip range [1]: 5 to 1000 ng/mL
COc1ccc2c3c1O[C@H]1C(=O)CC[C@@]4(O)[C@@H](C2)N(C)CC[C@]314 [Oxycodone]						10 uL Tip Range [1]: 10 to 1000 ng/mL; 15 uL Tip range [1]: 5 to 1000 ng/mL
CN1CC[C@]23c4c5ccc(O)c4O[C@H]2C(=O)CC[C@@]3(O)[C@H]1C5 [Oxymorphone]						10 uL Tip Range [1]: 5 to 1000 ng/mL; 15 uL Tip range [1]: 5 to 1000 ng/mL
O=C1CN=C(c2ccccc2Cl)c2cc(Br)ccc2N1 [Phenazepam]			5	10 to 1000 ng/mL	5 to 1000 ng/mL	
O=C1CN=C(c2ccccc2)c2cc(Cl)ccc2N1CC1CC1 [Prazepam]			0.5	1 to 1000 ng/mL	0.5-1000^ ng/mL	
CC(=O)[C@H]1CC[C@H]2[C@@H]3CCC4=CC(=O)CC[C@]4(C)[C@H]3CC[C@]12C [Progesterone]	0.15 to 10 µg/dL	100				
CN1C(=O)C(O)N=C(c2ccccc2)c2cc(Cl)ccc21 (centres unmarked) [Temazepam]			0.5	1 to 1000 ng/mL	0.5-1000^ ng/mL	
C[C@]12CC[C@H]3[C@@H](CCC4=CC(=O)CC[C@@]43C)[C@@H]1CC[C@@H]2O [Testosterone]	50-10,000 ng/dL	40				
Cc1ccsc1C(=CCCN1CCC[C@@H](C(=O)O)C1)c1sccc1C [Tiagabine]						MEAN of 10 runs ([2]; High QC […]): 0.14 µg/mL; % Accuracy ([2]; Low QC 0.03 ug/mL): 0.43%; MEAN of 10 runs ([2]; Low QC 0.03 ug/mL): 0.03 µg/mL; Run 1-10 measured concentration ([2]; Low QC 0.03 ug/mL): 0.03 µg/mL and 0.04 µg/mL; % Accuracy ([2]; Medium QC 0.06 ug/mL): 0.44%; MEAN of 10 runs ([2]; Medium QC 0.06 ug/mL): 0.07 µg/mL; Run 1-10 measured concentration ([2]; Medium QC 0.06 ug/mL): 0.07 µg/mL and 0.06 µg/mL and 0.08 µg/mL
Cc1nnc2n1-c1ccc(Cl)cc1C(c1ccccc1Cl)=NC2 [Triazolam]			1	2.5-1000^ ng/mL	1 to 1000 ng/mL	

“And” between values parts separate entries of the source, which are not always exact repeats. Identical values can stand only once. Like-named read-outs stand apart in the source and are kept apart here.
